# This is one part of the list.
# Amino acid sequences for entries named in this document (tags omitted). A change or cut given only in a name is not applied to a line headed by its entry.
# UniProt Q9UK58: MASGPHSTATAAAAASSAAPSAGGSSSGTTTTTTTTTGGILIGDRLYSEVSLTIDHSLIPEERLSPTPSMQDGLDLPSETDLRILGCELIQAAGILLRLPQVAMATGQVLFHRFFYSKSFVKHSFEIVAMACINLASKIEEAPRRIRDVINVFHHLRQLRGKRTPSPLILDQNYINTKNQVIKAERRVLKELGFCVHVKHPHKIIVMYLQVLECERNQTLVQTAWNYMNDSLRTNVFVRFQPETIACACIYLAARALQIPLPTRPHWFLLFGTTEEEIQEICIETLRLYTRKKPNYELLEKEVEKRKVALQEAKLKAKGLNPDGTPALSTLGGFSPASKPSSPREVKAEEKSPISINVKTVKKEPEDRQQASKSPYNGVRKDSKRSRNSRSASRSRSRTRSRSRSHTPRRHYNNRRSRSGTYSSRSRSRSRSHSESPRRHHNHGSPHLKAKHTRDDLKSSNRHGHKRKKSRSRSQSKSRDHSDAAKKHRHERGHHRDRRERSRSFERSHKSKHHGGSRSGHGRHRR
# UniProt P24864, whole entry, looked up: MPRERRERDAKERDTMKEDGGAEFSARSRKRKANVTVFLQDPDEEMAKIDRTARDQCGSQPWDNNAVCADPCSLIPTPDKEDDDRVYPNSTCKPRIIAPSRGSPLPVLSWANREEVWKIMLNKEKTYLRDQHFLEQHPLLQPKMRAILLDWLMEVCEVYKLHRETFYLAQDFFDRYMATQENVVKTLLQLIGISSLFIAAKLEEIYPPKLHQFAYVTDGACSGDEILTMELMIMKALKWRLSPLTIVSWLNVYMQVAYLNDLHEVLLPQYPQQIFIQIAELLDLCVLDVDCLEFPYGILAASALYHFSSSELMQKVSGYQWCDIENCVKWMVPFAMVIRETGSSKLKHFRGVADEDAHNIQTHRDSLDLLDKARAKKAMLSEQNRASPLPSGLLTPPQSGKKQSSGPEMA
# UniProt Q75N03: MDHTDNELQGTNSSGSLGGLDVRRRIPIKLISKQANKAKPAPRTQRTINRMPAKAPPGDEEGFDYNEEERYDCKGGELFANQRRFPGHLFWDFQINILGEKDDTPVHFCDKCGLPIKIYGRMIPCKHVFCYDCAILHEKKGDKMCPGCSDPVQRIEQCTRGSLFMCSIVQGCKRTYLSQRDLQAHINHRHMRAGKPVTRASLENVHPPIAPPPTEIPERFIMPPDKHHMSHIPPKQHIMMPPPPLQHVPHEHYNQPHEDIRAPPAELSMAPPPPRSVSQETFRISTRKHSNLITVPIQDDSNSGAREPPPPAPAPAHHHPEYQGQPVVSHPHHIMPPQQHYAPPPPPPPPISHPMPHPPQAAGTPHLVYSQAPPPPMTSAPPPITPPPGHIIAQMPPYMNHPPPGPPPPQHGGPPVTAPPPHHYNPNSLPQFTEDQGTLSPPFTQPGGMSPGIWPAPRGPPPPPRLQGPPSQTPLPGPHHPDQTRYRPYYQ
# UniProt O95400: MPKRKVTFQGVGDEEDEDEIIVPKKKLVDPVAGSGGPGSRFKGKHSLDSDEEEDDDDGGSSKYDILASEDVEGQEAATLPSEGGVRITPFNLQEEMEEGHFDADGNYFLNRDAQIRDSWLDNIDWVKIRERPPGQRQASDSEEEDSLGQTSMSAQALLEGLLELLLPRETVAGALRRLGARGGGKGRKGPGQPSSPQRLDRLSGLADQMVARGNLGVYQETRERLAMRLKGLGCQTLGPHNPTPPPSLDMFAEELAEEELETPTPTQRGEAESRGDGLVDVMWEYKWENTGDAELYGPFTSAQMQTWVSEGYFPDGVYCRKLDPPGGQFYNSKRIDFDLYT
# UniProt Q07108: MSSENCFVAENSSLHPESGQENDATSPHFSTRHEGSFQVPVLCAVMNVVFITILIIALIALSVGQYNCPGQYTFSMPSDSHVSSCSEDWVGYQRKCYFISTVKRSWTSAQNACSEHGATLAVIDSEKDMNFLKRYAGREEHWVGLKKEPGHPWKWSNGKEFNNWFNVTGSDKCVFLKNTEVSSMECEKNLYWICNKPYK
# UniProt Q2TAC2: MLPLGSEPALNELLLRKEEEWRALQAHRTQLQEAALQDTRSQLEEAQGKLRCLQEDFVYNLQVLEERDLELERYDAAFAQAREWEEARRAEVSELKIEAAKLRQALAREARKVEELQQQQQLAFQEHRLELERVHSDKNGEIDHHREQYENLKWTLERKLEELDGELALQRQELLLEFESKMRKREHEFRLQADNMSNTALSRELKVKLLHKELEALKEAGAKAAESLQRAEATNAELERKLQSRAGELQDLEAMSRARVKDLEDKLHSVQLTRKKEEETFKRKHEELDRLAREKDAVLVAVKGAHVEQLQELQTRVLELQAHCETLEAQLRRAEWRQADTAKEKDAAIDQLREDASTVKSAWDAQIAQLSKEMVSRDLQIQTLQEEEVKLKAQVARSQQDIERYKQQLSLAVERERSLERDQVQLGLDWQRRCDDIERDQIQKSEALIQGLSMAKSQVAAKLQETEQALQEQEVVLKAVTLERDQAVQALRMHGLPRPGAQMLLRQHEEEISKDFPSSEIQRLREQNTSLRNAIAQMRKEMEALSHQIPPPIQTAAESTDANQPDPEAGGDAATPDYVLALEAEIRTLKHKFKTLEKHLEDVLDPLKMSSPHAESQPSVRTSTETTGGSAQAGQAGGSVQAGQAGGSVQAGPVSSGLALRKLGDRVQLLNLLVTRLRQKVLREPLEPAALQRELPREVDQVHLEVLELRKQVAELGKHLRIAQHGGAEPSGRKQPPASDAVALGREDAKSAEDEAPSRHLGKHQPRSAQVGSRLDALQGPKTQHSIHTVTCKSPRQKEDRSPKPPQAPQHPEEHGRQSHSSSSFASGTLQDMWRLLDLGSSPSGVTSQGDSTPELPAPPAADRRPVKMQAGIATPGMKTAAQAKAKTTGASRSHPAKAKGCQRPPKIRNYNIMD
# UniProt P0C221: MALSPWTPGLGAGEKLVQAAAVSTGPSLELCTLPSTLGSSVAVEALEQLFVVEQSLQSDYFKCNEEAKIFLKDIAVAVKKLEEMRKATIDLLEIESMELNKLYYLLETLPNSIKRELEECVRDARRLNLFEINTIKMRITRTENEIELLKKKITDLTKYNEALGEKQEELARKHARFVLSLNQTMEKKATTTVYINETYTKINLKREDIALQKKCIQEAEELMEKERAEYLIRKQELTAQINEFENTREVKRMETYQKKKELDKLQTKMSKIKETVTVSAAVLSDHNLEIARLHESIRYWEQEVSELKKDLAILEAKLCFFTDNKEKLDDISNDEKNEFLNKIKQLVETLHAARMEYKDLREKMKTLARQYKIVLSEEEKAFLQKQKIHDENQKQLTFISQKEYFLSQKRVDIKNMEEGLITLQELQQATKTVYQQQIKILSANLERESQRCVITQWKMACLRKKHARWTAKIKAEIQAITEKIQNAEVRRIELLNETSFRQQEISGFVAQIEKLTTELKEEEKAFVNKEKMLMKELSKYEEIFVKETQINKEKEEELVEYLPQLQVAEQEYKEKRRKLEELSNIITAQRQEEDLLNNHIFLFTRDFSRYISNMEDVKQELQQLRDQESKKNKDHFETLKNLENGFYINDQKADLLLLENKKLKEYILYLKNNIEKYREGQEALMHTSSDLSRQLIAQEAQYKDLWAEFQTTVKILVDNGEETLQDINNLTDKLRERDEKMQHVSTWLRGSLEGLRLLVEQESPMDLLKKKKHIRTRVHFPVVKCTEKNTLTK
# UniProt Q7Z3E2: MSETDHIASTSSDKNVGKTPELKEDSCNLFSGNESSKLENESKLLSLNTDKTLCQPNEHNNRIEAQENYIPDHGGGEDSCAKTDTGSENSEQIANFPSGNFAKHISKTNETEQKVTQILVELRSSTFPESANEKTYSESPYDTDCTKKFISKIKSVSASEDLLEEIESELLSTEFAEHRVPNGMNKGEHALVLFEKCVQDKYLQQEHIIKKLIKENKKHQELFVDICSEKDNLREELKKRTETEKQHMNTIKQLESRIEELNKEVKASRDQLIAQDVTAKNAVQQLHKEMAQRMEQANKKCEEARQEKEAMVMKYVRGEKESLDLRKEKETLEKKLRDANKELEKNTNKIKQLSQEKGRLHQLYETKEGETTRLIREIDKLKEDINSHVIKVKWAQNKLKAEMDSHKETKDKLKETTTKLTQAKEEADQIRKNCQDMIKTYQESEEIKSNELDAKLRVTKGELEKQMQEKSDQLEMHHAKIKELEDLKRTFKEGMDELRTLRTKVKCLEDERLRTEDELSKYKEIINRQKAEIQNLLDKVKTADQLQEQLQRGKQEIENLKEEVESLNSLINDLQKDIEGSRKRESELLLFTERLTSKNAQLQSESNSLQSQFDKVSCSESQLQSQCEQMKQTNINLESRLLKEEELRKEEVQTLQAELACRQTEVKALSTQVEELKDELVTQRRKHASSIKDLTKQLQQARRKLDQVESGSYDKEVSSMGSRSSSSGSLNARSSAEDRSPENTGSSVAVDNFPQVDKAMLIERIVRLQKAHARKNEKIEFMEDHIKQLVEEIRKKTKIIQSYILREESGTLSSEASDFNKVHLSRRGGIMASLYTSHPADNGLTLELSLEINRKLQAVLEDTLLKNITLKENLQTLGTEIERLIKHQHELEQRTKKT
# UniProt Q13951, whole entry, looked up: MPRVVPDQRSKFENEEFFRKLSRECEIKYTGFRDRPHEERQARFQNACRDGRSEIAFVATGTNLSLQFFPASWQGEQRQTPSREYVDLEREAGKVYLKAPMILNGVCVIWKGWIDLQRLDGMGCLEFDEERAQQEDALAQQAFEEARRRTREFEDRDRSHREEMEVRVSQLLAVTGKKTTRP
# UniProt Q9P0B6: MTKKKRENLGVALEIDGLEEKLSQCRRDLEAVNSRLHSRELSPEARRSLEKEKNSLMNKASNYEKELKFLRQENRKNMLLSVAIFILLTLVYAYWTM
# UniProt P24385, whole entry, looked up: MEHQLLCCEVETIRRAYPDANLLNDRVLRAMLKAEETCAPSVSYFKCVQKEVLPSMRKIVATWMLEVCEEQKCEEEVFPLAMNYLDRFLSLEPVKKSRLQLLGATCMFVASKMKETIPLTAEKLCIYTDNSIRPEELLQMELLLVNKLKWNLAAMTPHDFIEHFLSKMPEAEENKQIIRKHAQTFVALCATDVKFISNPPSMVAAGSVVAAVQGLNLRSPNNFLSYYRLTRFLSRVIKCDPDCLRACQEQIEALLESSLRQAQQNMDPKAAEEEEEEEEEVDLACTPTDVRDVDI
# UniProt P11049: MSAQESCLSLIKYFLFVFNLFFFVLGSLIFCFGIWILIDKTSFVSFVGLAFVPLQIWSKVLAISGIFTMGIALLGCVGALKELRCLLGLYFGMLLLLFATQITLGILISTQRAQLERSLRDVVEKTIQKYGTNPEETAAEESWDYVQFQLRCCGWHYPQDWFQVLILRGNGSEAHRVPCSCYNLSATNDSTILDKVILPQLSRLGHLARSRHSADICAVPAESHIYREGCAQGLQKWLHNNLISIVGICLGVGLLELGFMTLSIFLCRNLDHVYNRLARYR
# UniProt Q5ZPR3: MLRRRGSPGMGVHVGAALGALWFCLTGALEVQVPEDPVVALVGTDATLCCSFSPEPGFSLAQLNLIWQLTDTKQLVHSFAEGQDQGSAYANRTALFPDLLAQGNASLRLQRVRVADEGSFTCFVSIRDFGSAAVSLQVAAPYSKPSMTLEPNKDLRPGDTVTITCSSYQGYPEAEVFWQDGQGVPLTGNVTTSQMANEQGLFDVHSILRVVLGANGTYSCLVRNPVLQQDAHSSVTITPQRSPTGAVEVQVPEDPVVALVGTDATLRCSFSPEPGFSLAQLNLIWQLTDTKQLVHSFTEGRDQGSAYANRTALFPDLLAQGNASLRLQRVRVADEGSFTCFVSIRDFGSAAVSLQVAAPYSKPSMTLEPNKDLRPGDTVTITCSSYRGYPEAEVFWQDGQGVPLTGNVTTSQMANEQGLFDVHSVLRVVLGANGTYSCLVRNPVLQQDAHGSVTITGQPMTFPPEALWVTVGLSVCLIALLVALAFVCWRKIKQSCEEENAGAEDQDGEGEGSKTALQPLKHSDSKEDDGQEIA
# UniProt P20138, whole entry, looked up: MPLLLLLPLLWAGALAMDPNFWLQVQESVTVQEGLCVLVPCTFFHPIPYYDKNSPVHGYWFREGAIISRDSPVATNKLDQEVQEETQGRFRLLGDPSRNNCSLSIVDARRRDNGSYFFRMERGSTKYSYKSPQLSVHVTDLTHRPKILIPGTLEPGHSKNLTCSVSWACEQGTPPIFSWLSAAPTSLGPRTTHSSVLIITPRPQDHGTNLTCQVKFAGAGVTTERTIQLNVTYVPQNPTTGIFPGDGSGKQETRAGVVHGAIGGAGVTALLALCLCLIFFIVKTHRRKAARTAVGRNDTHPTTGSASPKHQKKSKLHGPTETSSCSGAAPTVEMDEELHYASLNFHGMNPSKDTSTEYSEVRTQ
# UniProt P27701: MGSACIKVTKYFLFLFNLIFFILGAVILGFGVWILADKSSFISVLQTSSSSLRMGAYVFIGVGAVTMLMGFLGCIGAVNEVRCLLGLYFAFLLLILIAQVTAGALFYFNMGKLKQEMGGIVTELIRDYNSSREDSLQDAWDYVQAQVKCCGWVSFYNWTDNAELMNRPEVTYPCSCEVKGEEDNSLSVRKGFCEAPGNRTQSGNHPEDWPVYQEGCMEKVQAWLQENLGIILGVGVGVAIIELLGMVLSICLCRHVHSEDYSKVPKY
# How the values were obtained:
# Experiment in all cases: log2 fold change, soluble protein after heating vs DMSO (PISA); higher = thermal stabilisation; K562 cells, 10 uM, 30 min; active = over 0.2 and 3.5 SD of the protein, either way, in both replicates (recomputed)
# [1] = compound: NC1(c2ccc(-c3nc4ccn5c(=O)[nH]nc5c4cc3-c3ccccc3)cc2)CCC1
# How it was run: (§1)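 Aliquots of K562 cells (2×10^6 cells/mL) treated with 10 μM compound for 30 min were heated for 3 min over 48°C-58°C. After pooling and extraction in PBS with 0.5% NP-40 at 4°C, soluble protein from a 21,000xg, 90 min spin was quantified by TMTpro 16plex LC-MS/MS with channel sums equalised. Thermal stability is expressed against control samples, from duplicates, as a log2 fold change.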
# silmitasertib = compound: O=C(O)c1ccc2c(c1)nc(Nc1cccc(Cl)c1)c1ccncc12 [silmitasertib]
# How it was run: as §1
# vorinostat = compound: O=C(CCCCCCC(=O)Nc1ccccc1)NO [vorinostat]
# How it was run: as §1
# [2] = compound: O=C1NC(=O)C(c2cnc3ccccn23)=C1c1cn2c3c(cc(F)cc13)CN(C(=O)N1CCCCC1)CC2
# How it was run: as §1
# [3] = compound: NC(=O)c1cnc(N[C@@H]2CCCC[C@@H]2N)nc1Nc1cccc(-n2nccn2)c1
# How it was run: as §1
# [4] = compound: NCC(=O)Nc1ccc(-n2nc(C(F)(F)F)cc2-c2ccc3c(ccc4ccccc43)c2)cc1
# How it was run: as §1
# [5] = compound: NC(=O)Nc1cc(-c2cccc(F)c2)sc1C(=O)N[C@H]1CCCNC1
# How it was run: as §1
# entinostat = compound: Nc1ccccc1NC(=O)c1ccc(CNC(=O)OCc2cccnc2)cc1 [entinostat]
# How it was run: as §1
# citarinostat = compound: O=C(CCCCCCNC(=O)c1cnc(N(c2ccccc2)c2ccccc2Cl)nc1)NO [citarinostat]
# How it was run: as §1
# [6] = compound: c1cc(OCCN2CCCCC2)cc(-c2n[nH]c3ccc(-c4nnc[nH]4)cc23)c1
# How it was run: as §1
# entospletinib = compound: c1cn2cc(-c3ccc4cn[nH]c4c3)nc(Nc3ccc(N4CCOCC4)cc3)c2n1 [entospletinib]
# How it was run: as §1
target,measurement,setting,value
CCNL1 (UniProt Q9UK58),log2 fold change,[1],inactive: -0.224
same,log2 fold change,silmitasertib,inactive: -0.173
CCDC66 (UniProt A2RUB6),log2 fold change,[1],inactive: 0.203
same,log2 fold change,vorinostat,inactive: 0.063
same,log2 fold change,silmitasertib,inactive: -0.341
same,log2 fold change,[2],inactive: -0.023
CCNE1 (UniProt P24864),log2 fold change,[3],inactive: -0.057
same,log2 fold change,[4],inactive: -0.048
same,log2 fold change,vorinostat,inactive: 0.055
same,log2 fold change,[2],inactive: -0.051
CDC25A (UniProt P30304),log2 fold change,[5],inactive: 0.006
same,log2 fold change,[1],inactive: -0.097
same,log2 fold change,entinostat,inactive: -0.03
same,log2 fold change,citarinostat,inactive: -0.005
same,log2 fold change,silmitasertib,inactive: -0.007
same,log2 fold change,[2],inactive: -0.079
same,log2 fold change,[6],inactive: -0.003
same,log2 fold change,entospletinib,inactive: -0.041
CASK (UniProt O14936),log2 fold change,[3],inactive: 0.026
CDC37 (UniProt K7EKQ2),log2 fold change,[5],inactive: 0.435
same,log2 fold change,entinostat,inactive: 0.25
same,log2 fold change,citarinostat,inactive: 0.111
same,log2 fold change,[2],inactive: 0.288
same,log2 fold change,[6],inactive: 0.066
same,log2 fold change,entospletinib,inactive: -0.179
CBLL1 (UniProt Q75N03),log2 fold change,[5],inactive: -0.07
same,log2 fold change,[3],inactive: 0.054
same,log2 fold change,[4],inactive: -0.207
same,log2 fold change,entinostat,inactive: 0.057
same,log2 fold change,citarinostat,inactive: 0.031
same,log2 fold change,[6],inactive: -0.086
same,log2 fold change,entospletinib,inactive: 0
CD2BP2 (UniProt O95400),log2 fold change,[4],inactive: 0.114
same,log2 fold change,[2],inactive: 0.093
CD69 (UniProt Q07108),log2 fold change,[5],inactive: -0.086
same,log2 fold change,[1],inactive: 0.048
same,log2 fold change,[4],inactive: 0.083
same,log2 fold change,entinostat,inactive: -0.008
same,log2 fold change,vorinostat,inactive: 0.062
same,log2 fold change,silmitasertib,inactive: 0.046
same,log2 fold change,[2],inactive: -0.006
"CCDC187, A0A1W2PQX5",log2 fold change,[3],inactive: -0.147
same,log2 fold change,vorinostat,inactive: -0.042
same,log2 fold change,[2],inactive: -0.048
CCNL2 (UniProt Q96S94),log2 fold change,[5],inactive: -0.148
same,log2 fold change,entinostat,inactive: 0.189
same,log2 fold change,[2],inactive: -0.125
CCM2 isoform 2 (UniProt Q9BSQ5),log2 fold change,[5],inactive: -0.103
same,log2 fold change,[1],inactive: -0.09
same,log2 fold change,[4],inactive: -0.067
same,log2 fold change,entinostat,active: 0.326
same,log2 fold change,vorinostat,inactive: -0.038
same,log2 fold change,citarinostat,inactive: -0.073
same,log2 fold change,silmitasertib,inactive: 0.048
same,log2 fold change,[2],inactive: -0.136
same,log2 fold change,[6],inactive: 0.069
CD84 (UniProt Q9UIB8),log2 fold change,[5],inactive: -0.182
same,log2 fold change,[3],inactive: -0.036
same,log2 fold change,entinostat,inactive: 0.234
same,log2 fold change,[2],inactive: 0.084
CCDC57 (UniProt Q2TAC2),log2 fold change,[5],inactive: -0.025
same,log2 fold change,[1],inactive: -0.014
same,log2 fold change,[4],inactive: -0.04
same,log2 fold change,entinostat,inactive: -0.031
same,log2 fold change,citarinostat,inactive: 0.008
same,log2 fold change,silmitasertib,inactive: -0.038
same,log2 fold change,[2],inactive: -0.002
same,log2 fold change,[6],inactive: -0.11
CCDC175 (UniProt P0C221),log2 fold change,[3],inactive: -0.13
same,log2 fold change,[1],inactive: -0.028
same,log2 fold change,[4],inactive: -0.051
same,log2 fold change,vorinostat,inactive: -0.001
same,log2 fold change,citarinostat,inactive: -0.039
same,log2 fold change,silmitasertib,inactive: -0.068
same,log2 fold change,[6],inactive: 0.027
same,log2 fold change,entospletinib,inactive: -0.014
CCDC186 (UniProt Q7Z3E2),log2 fold change,[5],inactive: -0.001
same,log2 fold change,[1],inactive: 0.18
same,log2 fold change,[4],inactive: 0.23
same,log2 fold change,entinostat,inactive: 0.019
same,log2 fold change,vorinostat,inactive: -0.068
same,log2 fold change,citarinostat,inactive: -0.039
same,log2 fold change,silmitasertib,inactive: 0.099
same,log2 fold change,[6],inactive: -0.01
same,log2 fold change,entospletinib,inactive: 0.015
CBFB (UniProt Q13951),log2 fold change,[3],inactive: -0.041
same,log2 fold change,[1],inactive: -0.063
same,log2 fold change,[4],inactive: -0.063
same,log2 fold change,citarinostat,inactive: 0.169
same,log2 fold change,silmitasertib,inactive: -0.045
same,log2 fold change,[6],inactive: 0.014
same,log2 fold change,entospletinib,inactive: -0.129
CCDC71L isoform 2 (UniProt Q8N9Z2),log2 fold change,[5],inactive: -0.234
same,log2 fold change,entinostat,inactive: -0.037
same,log2 fold change,citarinostat,inactive: -0.078
same,log2 fold change,[2],inactive: -0.004
same,log2 fold change,[6],inactive: -0.214
same,log2 fold change,entospletinib,inactive: -0.252
CDC37 (UniProt K7EL68),log2 fold change,[5],inactive: -0.062
same,log2 fold change,[3],inactive: -0.048
same,log2 fold change,[4],inactive: 0
same,log2 fold change,entinostat,inactive: -0.02
same,log2 fold change,citarinostat,inactive: -0.153
same,log2 fold change,[2],inactive: -0.025
same,log2 fold change,[6],inactive: -0.165
same,log2 fold change,entospletinib,inactive: -0.023
CCDC167 (UniProt Q9P0B6),log2 fold change,[5],inactive: 0.014
same,log2 fold change,[1],inactive: 0.046
same,log2 fold change,entinostat,inactive: 0.031
same,log2 fold change,vorinostat,inactive: 0.008
same,log2 fold change,citarinostat,inactive: -0.014
same,log2 fold change,silmitasertib,inactive: 0.135
same,log2 fold change,[2],inactive: 0.038
same,log2 fold change,[6],inactive: 0.009
CCNY (UniProt Q8ND76),log2 fold change,[5],inactive: -0.046
same,log2 fold change,[3],inactive: 0.066
same,log2 fold change,[4],inactive: -0.032
same,log2 fold change,entinostat,inactive: -0.16
same,log2 fold change,vorinostat,inactive: 0.218
same,log2 fold change,[2],inactive: 0.194
CDADC1 (UniProt Q9BWV3),log2 fold change,[4],inactive: 0.102
CBFA2T2 isoform 4 (UniProt O43439),log2 fold change,vorinostat,inactive: 0.028
CCND3 (UniProt P30281),log2 fold change,[3],inactive: -0.204
same,log2 fold change,[1],inactive: -0.001
same,log2 fold change,[4],inactive: 0.184
same,log2 fold change,vorinostat,inactive: 0.048
same,log2 fold change,citarinostat,inactive: 0
same,log2 fold change,silmitasertib,inactive: 0.28
same,log2 fold change,[2],inactive: 0.069
same,log2 fold change,[6],inactive: 0.183
CD68 (UniProt P34810),log2 fold change,[5],inactive: 0.039
same,log2 fold change,[1],inactive: -0.106
same,log2 fold change,entinostat,inactive: -0.33
same,log2 fold change,silmitasertib,inactive: 0.07
CCDC102A (UniProt Q96A19),log2 fold change,[3],inactive: -0.018
same,log2 fold change,[4],inactive: 0.153
same,log2 fold change,vorinostat,inactive: -0.137
same,log2 fold change,citarinostat,inactive: -0.137
same,log2 fold change,[2],inactive: -0.023
same,log2 fold change,[6],inactive: -0.084
same,log2 fold change,entospletinib,inactive: 0.077
CD109 (UniProt Q6YHK3),log2 fold change,[4],inactive: -0.267
same,log2 fold change,vorinostat,inactive: 0.09
CCND1 (UniProt P24385),log2 fold change,[5],inactive: -0.001
same,log2 fold change,entinostat,inactive: -0.003
CD37 (UniProt P11049),log2 fold change,[3],inactive: 0.065
same,log2 fold change,[4],inactive: -0.117
same,log2 fold change,vorinostat,inactive: -0.021
CD276 (UniProt Q5ZPR3),log2 fold change,vorinostat,inactive: 0.043
CDC27 (UniProt G5EA36),log2 fold change,[2],inactive: -0.081
CD33 (UniProt P20138),log2 fold change,[5],inactive: 0.073
same,log2 fold change,[4],inactive: 0.094
same,log2 fold change,entinostat,inactive: 0.004
same,log2 fold change,vorinostat,inactive: 0.035
same,log2 fold change,citarinostat,inactive: -0.037
same,log2 fold change,[2],inactive: 0.03
same,log2 fold change,[6],inactive: 0.076
same,log2 fold change,entospletinib,inactive: 0.032
CD82 (UniProt P27701),log2 fold change,[5],inactive: -0.017
same,log2 fold change,[1],inactive: -0.12
same,log2 fold change,entinostat,inactive: -0.022
same,log2 fold change,vorinostat,inactive: 0.225
same,log2 fold change,silmitasertib,inactive: -0.054
same,log2 fold change,[2],inactive: -0.062
CCDC82 (UniProt Q8N4S0),log2 fold change,[3],inactive: -0.083
same,log2 fold change,[1],inactive: -0.146
same,log2 fold change,[4],inactive: -0.063
same,log2 fold change,citarinostat,inactive: 0.023
same,log2 fold change,silmitasertib,inactive: 0.047
same,log2 fold change,[2],inactive: -0.169
same,log2 fold change,[6],inactive: 0.046
CD9 (UniProt P21926),log2 fold change,[5],inactive: 0.581
same,log2 fold change,[3],inactive: 0.16
same,log2 fold change,entinostat,inactive: 0.217
same,log2 fold change,vorinostat,inactive: 0.039
same,log2 fold change,[2],inactive: 0.076
CD99L2 isoform 5 (UniProt Q8TCZ2),log2 fold change,[1],inactive: 0.139
same,log2 fold change,[4],inactive: -0.028
same,log2 fold change,vorinostat,inactive: -0.037
same,log2 fold change,silmitasertib,inactive: 0.001
same,log2 fold change,[2],inactive: -0.079
CBX8 (UniProt Q9HC52),log2 fold change,citarinostat,inactive: -0.445
same,log2 fold change,[6],inactive: -0.321
same,log2 fold change,entospletinib,inactive: 0.052

# Shown bar-delimited: part of the list above
target | measurement | setting | value
CBLL1 (UniProt Q75N03) | log2 fold change | [3] | inactive: 0.054
same | log2 fold change | [4] | inactive: -0.207
same | log2 fold change | entinostat | inactive: 0.057
same | log2 fold change | citarinostat | inactive: 0.031

# 3 records drawn at random from the list so far:
target,measurement,setting,value
CD68 (UniProt P34810),log2 fold change,entinostat,inactive: -0.33
CDC25A (UniProt P30304),log2 fold change,citarinostat,inactive: -0.005
CD69 (UniProt Q07108),log2 fold change,[4],inactive: 0.083

# An excerpt of these results, with tabs.
target	measurement	setting	value
CCDC57 (UniProt Q2TAC2)	log2 fold change	[1]	inactive: -0.014
same	log2 fold change	[4]	inactive: -0.04
same	log2 fold change	entinostat	inactive: -0.031
same	log2 fold change	citarinostat	inactive: 0.008
same	log2 fold change	silmitasertib	inactive: -0.038
same	log2 fold change	[2]	inactive: -0.002

# Reference: the supplement of paper PMC10849652
